Data on 42 sequences can be found in paper PMC7819943, “Rice protein-binding microarrays: a tool to detect cis-acting elements near promoter regions in rice”.

The list shows a part of the results.

For the assay, the target named is T1, OsSMF1 (Oryza sativa, UniProt Q6ZLB0 1-436).
T1 sequence: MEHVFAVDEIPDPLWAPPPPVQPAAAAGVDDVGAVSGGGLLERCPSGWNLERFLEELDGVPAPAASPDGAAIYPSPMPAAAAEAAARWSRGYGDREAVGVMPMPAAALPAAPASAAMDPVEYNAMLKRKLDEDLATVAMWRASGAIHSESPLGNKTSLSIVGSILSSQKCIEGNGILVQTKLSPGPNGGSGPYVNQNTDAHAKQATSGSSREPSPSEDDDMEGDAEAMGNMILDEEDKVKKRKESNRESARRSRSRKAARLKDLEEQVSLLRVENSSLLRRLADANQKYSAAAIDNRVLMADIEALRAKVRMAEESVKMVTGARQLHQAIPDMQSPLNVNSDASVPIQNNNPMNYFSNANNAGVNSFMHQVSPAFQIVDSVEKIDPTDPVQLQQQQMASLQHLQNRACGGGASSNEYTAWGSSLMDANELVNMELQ
Nature of the assay: protein-binding microarray (RPBM); PBS, 2% BSA, 51.3 ng/ul salmon testes DNA, 50 uM zinc acetate, 200 nM TF, 25 C, 1 h; high values mean tight binding. The conditions noted are these: protein: recombinant; tags: N-terminal polyhistidine and DsRed monomer fusion (pET32a); chain copies: 2; label: CyDye5-dUTP incorporated in the synthesized complementary strand; 3' TTTTT single-stranded linker to array surface; dsDNA, one strand shown. A digest of the protocol:
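An Axon 4000B scanner gave the binding signal as per-feature fluorescence intensity in arbitrary units. This followed washing of a custom Agilent array that had been incubated for 1 h at 25 °C with 200 nM protein in PBS, 2% BSA, salmon testes DNA and 50 µM zinc acetate. The proteins were transcription factors fused at the N-terminus to polyhistidine and DsRed, expressed in E. coli BL21-CodonPlus and purified on Ni–NTA.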
Regarding “AATAATGGCTTTCGTTGTCCTTGTCACATCATAAACTTCTCGGAGTCACCTAGTGCAG”, the binding signal is 4640 fluorescence intensity (a.u.). For “CACAATACCCACGCGTCTCCACTCTACCCTCTCCCACTGCCGGAGTCACCTAGTGCAG”, the binding signal was 4160 fluorescence intensity (a.u.). Turning to “TGCCTGAAATGTGACCGTACTTTGCATGGACAGGTTATGGCGGAGTCACCTAGTGCAG”, the binding signal is 3510 fluorescence intensity (a.u.). Take “TTCAGCCTGTCATCGTCAATTCGTCATCAGTTCATCGCTCCGGAGTCACCTAGTGCAG”: the binding signal was 5390 fluorescence intensity (a.u.). Next, “TTAGTTTTACACGTAAATCGGACGTATGACGTGGGATTTCCGGAGTCACCTAGTGCAG”: 14500 fluorescence intensity (a.u.). “ACATACATATATATATATATATATACATACATATATATATCGGAGTCACCTAGTGCAG”: the binding signal is 3740 fluorescence intensity (a.u.).

Regarding “GACGGTCCAGATCACGCCATATCATCCCTACCACACACTCCGGAGTCACCTAGTGCAG”, the binding signal was 3310 fluorescence intensity (a.u.). On to “TCTGGTTTTGTAGTTTAGGGTTATGGTTTAGATTTCGATCCGGAGTCACCTAGTGCAG”, for which the binding signal was 3850 fluorescence intensity (a.u.). Take “AGCGCTAGATTGGCCATCGACCACATCACCAACAACTCTCCGGAGTCACCTAGTGCAG”: the binding signal is 3620 fluorescence intensity (a.u.). For the sequence “ATCCGCCCTCCACCCGCCGCTGCCGACGTGGTCCGTCCTTCGGAGTCACCTAGTGCAG”, the binding signal is 7810 fluorescence intensity (a.u.). Take “ACGCTGCCATGTCAGCGAGATTGGCGTGACAATATTGTTTCGGAGTCACCTAGTGCAG”: the binding signal is 7920 fluorescence intensity (a.u.). For the sequence “CTGAATGAGATGATGTAATGGTAGATTTGTGGACAGGAAACGGAGTCACCTAGTGCAG”, the binding signal is 3610 fluorescence intensity (a.u.). With “AATGTTGTTTGGCTTATGTGTTCCTTATTTCCATCATCTGCGGAGTCACCTAGTGCAG”, the binding signal was 13300 fluorescence intensity (a.u.). Consider “AACCGAATCCAATCGAGCTCAGGACGAGGCGGAGGAGGAGCGGAGTCACCTAGTGCAG”, for which the binding signal is 42900 fluorescence intensity (a.u.).

Take “GCATCCTTTTCATTGGCCTTTGCGTGTAATTTGGGGCATGCGGAGTCACCTAGTGCAG”: the binding signal was 4710 fluorescence intensity (a.u.).

In the case of “TTTAATTCCATGAATGGAACCCTAGATGAGCTGGAACTTGCGGAGTCACCTAGTGCAG”, the binding signal is 3870 fluorescence intensity (a.u.).

For the sequence “AGCTCAATGCCATTACGCTAACAGTTCATCGCTCAATGTTCGGAGTCACCTAGTGCAG”, the binding signal was 21000 fluorescence intensity (a.u.). Take “CCATGCTGCAGCAGAAGCTTCATCCAAGCCATGGATGACTCGGAGTCACCTAGTGCAG”: the binding signal is 3420 fluorescence intensity (a.u.). Regarding “CCTAAATCCGCTCCCCATCTTCCCTGTGACTCTGTTGGCTCGGAGTCACCTAGTGCAG”, the binding signal is 3410 fluorescence intensity (a.u.).

“GTGGCACACCTCGCTGCTAATGGCGCTGCTAGCACGACTACGGAGTCACCTAGTGCAG”: the binding signal is 3260 fluorescence intensity (a.u.). “CCAGTTAGGCCCACGAGTAGGTGGAACGACCACCTCACGGCGGAGTCACCTAGTGCAG”: the binding signal is 3710 fluorescence intensity (a.u.). As to “GGCCTGGCCCAAATTTTCCTGCGGCCCACGTACTCCATCCCGGAGTCACCTAGTGCAG”, the binding signal was 4290 fluorescence intensity (a.u.). Regarding “ACTCGGAATCTTCAATCTTGGACACGTGAGCTGGGCTTCTCGGAGTCACCTAGTGCAG”, the binding signal is 3690 fluorescence intensity (a.u.). As for “CGGGAGAGGGTCGGAGAGACAAGCAGCGGCGGCGGCGGCGCGGAGTCACCTAGTGCAG”, the binding signal is 3510 fluorescence intensity (a.u.). Consider “TTGATCGAGTGCCATTTTATATACACCGTTGTGCATTTCCCGGAGTCACCTAGTGCAG”, for which the binding signal was 17300 fluorescence intensity (a.u.).

In the case of “CAAAAGACCGAAACCTCCCCGCGTCCCAGTCACACGCGCTCGGAGTCACCTAGTGCAG”, the binding signal was 5720 fluorescence intensity (a.u.). The value for “TCTGCTAGTGCATCATCACTCAACTCCCCTGATCTATATGCGGAGTCACCTAGTGCAG” was 3290 fluorescence intensity (a.u.); that for “GCCACCTCGTTGACCTCACCGCGTAGGTGGCGCACCTCCGCGGAGTCACCTAGTGCAG” was 3480 fluorescence intensity (a.u.).

With “ATCGTACCATAGAAGCCTTATGGACGACGGTTGGTTTCTCCGGAGTCACCTAGTGCAG”, the binding signal is 3290 fluorescence intensity (a.u.). On to “ACCTTGTCTCCTTACCCAGCGTTTCCAACCATGCCTAACTCGGAGTCACCTAGTGCAG”, for which the binding signal was 3410 fluorescence intensity (a.u.). Regarding “CCGTCCACCACCGCCTTTCTTCGATCCGTCGCCACGCCCTCGGAGTCACCTAGTGCAG”, the binding signal is 3280 fluorescence intensity (a.u.).

In the case of “CATCTTGTTAATTAGTGGATGATGATGTGGCATCTATGCACGGAGTCACCTAGTGCAG”, the binding signal is 12900 fluorescence intensity (a.u.). Next, “AAATCTATATTTATGTTTGTGTGGTTCCTTAGTTAAATCACGGAGTCACCTAGTGCAG”: 3850 fluorescence intensity (a.u.); “GCGATGGGTATATCACCACGTATAGTCCATAGTCTATACGCGGAGTCACCTAGTGCAG”: 3190 fluorescence intensity (a.u.); “GTTATGTTATTATCCCACCCGAGCCACGTTATACTACCCACGGAGTCACCTAGTGCAG”: 5140 fluorescence intensity (a.u.). Regarding “TTGTCAAATAATTAAAACAAATCATGAGTATATTAAGAATCGGAGTCACCTAGTGCAG”, the binding signal is 3240 fluorescence intensity (a.u.). As to “GATATCCATGTGTATGTCAATGTCACGTGATATGTCTTGTCGGAGTCACCTAGTGCAG”, the binding signal was 5700 fluorescence intensity (a.u.). With “TTTCCTGGGCTATGTTGCTGACCAAGCAATGAAGTTAAAACGGAGTCACCTAGTGCAG”, the binding signal was 4300 fluorescence intensity (a.u.). The value for “GGACGGACCACCCGCACCTCTTCCGCGTCAACCACCACCGCGGAGTCACCTAGTGCAG” was 3260 fluorescence intensity (a.u.); that for “CAAACAAGGAATTAATAGTCCATAACACAATATCTCGTCGCGGAGTCACCTAGTGCAG” was 17000 fluorescence intensity (a.u.).

For “TGGAAGTTCTCCGCATCATAAACGAGCCTACTGCAGCATCCGGAGTCACCTAGTGCAG”, the binding signal was 3240 fluorescence intensity (a.u.). Take “GGAGCGCGGACTCGCCGGCCAGCCGCGTCACGCGCTGGCGCGGAGTCACCTAGTGCAG”: the binding signal is 6650 fluorescence intensity (a.u.).
